Results taken from ChEMBL document CHEMBL4011581, “Interference with bile salt export pump function is a susceptibility factor for human liver injury in drug development” (Toxicol Sci, 2010).

Target: Bile salt export pump (Homo sapiens, UniProt O95342)
Assay: Inhibition of human BSEP expressed in fall armyworm sf9 cell plasma membrane vesicles assessed as reduction in vesicle-associated [3H]-taurocholate transport preincubated for 10 mins prior to ATP addition measured after 15 mins in presence of [3H]-taurocholate by topcount based membrane vesicle transport assay
Type: ADME

Compound: CCN(CC)CC#CCOC(=O)C(O)(c1ccccc1)C1CCCCC1 (stereo not drawn) [OXYBUTYNIN]
- IC50: 27.4 µM

Compound: CN1CCN(CCCN2c3ccccc3Sc3ccc(Cl)cc32)CC1 [PROCHLORPERAZINE]
- IC50: > 135 µM

Compound: Cc1nc2n(c(=O)c1CCN1CCC(c3noc4cc(F)ccc34)CC1)CCCC2 [RISPERIDONE]
- IC50: > 135 µM
